## Primary screen of a compound library

From ChEMBL document CHEMBL3988442, “University of Dundee, Small-Polar-MMV Screening Library” (2021).

Results are given as percent effect.
The controls that fix the scale are not given in the record; negative values are as filed.
This is an unselected part of the compounds tested.
A dash means the value is not listed here; it may have been measured.

T. brucei: 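Whole-parasite assay of Trypanosoma brucei over 72 hours; the read-out is not stated. Tested at 30 µM. Higher reads as stronger inhibition (inferred: compounds with an IC50 in retests scored well above the rest). Values scatter widely below zero; nearly all retest evidence comes from the higher of the two concentrations used. About 64,000 compounds were tested under these conditions; 1.5% (about 940) showed 50% or more at least once.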
Toxoplasma: 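Assay of Toxoplasma gondii numbers, read through their beta-galactosidase reporter with a colour substrate. Concentration: 10 µM. The record gives no direction; the compounds picked for IC50 retests had high values, so higher reads as fewer parasites. About 67,000 compounds were tested under these conditions; 0.38% (about 260) showed 50% or more at least once.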

| SMILES | T. brucei | Toxoplasma |
|---|---|---|
| `O=C(CC1CCCO1)NCCc1ccccc1Br` (stereo unspecified) | -22.93 | 1.018 |
| `CCN1CCN(C(=O)C2CC(=O)N(c3cnn(C(C)C)c3)C2)CC1` (stereo unspecified) | -18.93 | 11.15 |
| `CCc1nc(CC(=O)NCC(Cc2ccc(F)cc2)C(N)=O)cs1` (stereo unspecified) | -1.761 | 1.76 |
| `CN(C)CC(C)(C)Cn1cnc(-c2ccccc2)c1-c1ncc[nH]1` | -18.28 | 14.95 |
| `Cl.Cl.[H][C@@]12CN(Cc3ccccc3)C[C@]1([H])[C@@H]2CN` | 24.19 | 4.013 |
| `COCCn1ccc2c(C(=O)NC(C)C)cccc21` | 0.02038 | -28.73 |
| `CCNC(=O)NC[C@H]1Cn2c(-c3ccccc3)cnc2CO1` | -1.783 | 7.712 |
| `N#Cc1ccnc(N2CCN(C(=O)NC3CCS(=O)(=O)C3)CC2)c1` (stereo unspecified) | 9.556 | 0.6462 |
| `COC(=O)C1C=CCN1C(=O)c1cc(COc2ccccc2)[nH]n1` (stereo unspecified) | -3.109 | -14.49 |
| `[H][C@]12CCN(C(=O)c3cccn3C)[C@@]1([H])CCC(=O)N2CC1CC1` | -38.77 | 12.91 |
| `Cc1cc(CN2CCN(c3ccc4nncn4n3)CC2)no1` | -2.168 | 5.312 |
| `[H][C@]1([C@H](O)c2ccc(NC(=O)COC)cc2)COCC(=O)N1CC(C)C` | -9.607 | 1.363 |
| `COC(=O)NCCC(=O)NCC1(c2cccc(Cl)c2)CC1` | -5.617 | 2.271 |
| `COCCC1(C(=O)O)CCCN(c2cc(C)c3ccccc3n2)C1` (stereo unspecified) | -41.09 | -18.78 |
| `Cc1ncoc1C(=O)N1CCOC(CC2CCCCC2)C1` (stereo unspecified) | -3.71 | 4.249 |
| `CCOc1cc(C)nc(N2CCN(C(=O)c3ccc[nH]3)CC2)n1` | -31.71 | 3.339 |
| `Cc1nc2ncnn2c2ccn(-c3cccnc3O)c(=O)c12` | -13 | -7.23 |
| `CN1CCC(N2CCC(c3ccccc3C(=O)O)C2)CC1` (stereo unspecified) | 1.005 | -0.2981 |
| `O=C(O)C(F)(F)F.c1coc(CN2Cc3ccnn3CC(COCC3CC3)C2)c1` (stereo unspecified) | -107.9 | -5.382 |
| `Cc1nnc2n1CCN(Cc1nc3c(F)cccc3[nH]1)C2` | 1.464 | -10.05 |
| `CCN1CCN(c2ccc(CNC(=O)c3ccc(Cl)o3)cn2)CC1` | -3.352 | 0.6303 |
| `CN(Cc1cc2n(n1)CCCNC2)Cc1cc(-c2ccncc2)no1` | -28.34 | 4.315 |
| `CC(C(=O)N(Cc1ccc(C#N)cc1)CC(F)(F)F)S(C)(=O)=O` (stereo unspecified) | -116.5 | -6.559 |
| `Clc1cc(Cl)cc(CN2CCC(NCc3ncc[nH]3)CC2)c1` | -65.03 | -3.339 |
| `O=C(Cn1nc(Br)nc1Br)N1CCCC1` | -8.154 | 3.293 |
| `Cc1nc(Cn2cc(I)cc(C)c2=O)oc1C` | -32.01 | 2.564 |
| `COCCOc1ccccc1C(=O)N(C)Cc1ncc(C)c(OC)c1C` | 13.75 | 3.243 |
| `COCCC1(CO)CCCN(Cc2ccc(C(F)(F)F)nc2)C1` (stereo unspecified) | -87.13 | 5.828 |
| `Cc1cc2nc(C(C)C)cc(N(C)CC3CCN(C(C)C)C3)n2n1` (stereo unspecified) | -20.85 | 5.498 |
| `CS(=O)(=O)N1CCCC(Cc2cncc(-c3ccccc3C(=O)O)n2)C1` (stereo unspecified) | -20.1 | -15.2 |
| `Cc1ccc(F)c(C(=O)Nc2c(C(N)=O)n[nH]c2C)c1` | -23.96 | 3.442 |
| `Cn1ccnc1C(=O)N1CCC2(CCCN2CC2CC2)CC1.O=C(O)C(F)(F)F` | - | -14.31 |
| `COC(=O)CC1CCCCN1CC(=O)NCCc1ccc(F)cc1` (stereo unspecified) | -1.002 | 0.08489 |
| `O=C1NCCCCC1Sc1nnc(-c2cccnc2)n1C1CC1` (stereo unspecified) | -81.91 | 1.423 |
| `O=C(Cn1c(=O)oc2ccccc21)NCC1(O)CCc2ccccc21` (stereo unspecified) | 12.66 | -13.32 |
| `COc1ccccc1C(CNC(=O)NCc1cc[nH]n1)N1CCCC1` (stereo unspecified) | -45.85 | 6.783 |
| `COCC1CN(C(=O)C2=CCCC2)Cc2cnn(CC3CC3)c21` (stereo unspecified) | -32.44 | -3.612 |
| `Cn1cc(C(C)(O)CNc2ccc(C(F)(F)F)cn2)cn1` (stereo unspecified) | 16.07 | 16.9 |
| `c1ccc(CN2CCCC2)c(CNc2cncc3nnnn23)c1` | -13.49 | 13.43 |
| `CC(C(=O)Nc1ccnn1C(C)C)N1CCCN(c2nccs2)CC1` (stereo unspecified) | 22.36 | 1.122 |
| `CC(=O)N[C@@H]1CN(C(=O)c2cnccn2)C[C@H]1c1ccc(C)cc1` | -4.747 | -2.663 |
| `c1ccc(SCCN2CCCC(Cn3ccnc3)C2)cc1` (stereo unspecified) | 9.974 | 2.085 |
| `CCCc1nccn1-c1ccc(C(O)CN2CCOCC2)cc1` (stereo unspecified) | -12.47 | -1.712 |
| `Cc1ccc2c(n1)N(Cc1cccnc1)CCN(C1CCOCC1)C2.O=C(O)C(F)(F)F.O=C(O)C(F)(F)F.O=C(O)C(F)(F)F` | -18.41 | -7.941 |
| `COc1cc(C)nc(N2CCN(C(=O)CCc3ccco3)CC2)n1` | -27.98 | 17.75 |
| `Cc1nc2cc(C3CCOCC3)nn2c(NCC2COCCO2)c1C` (stereo unspecified) | -8.592 | -12.33 |
| `CN(C(=O)C1CCOCC1)[C@@H]1CCC[C@@H](N2CCCC2)[C@@H]1O` | -9.522 | 4.625 |

Some entries from above, unchanged:

{"smiles": "Cc1ccc2c(n1)N(Cc1cccnc1)CCN(C1CCOCC1)C2.O=C(O)C(F)(F)F.O=C(O)C(F)(F)F.O=C(O)C(F)(F)F", "T. brucei": -18.41, "Toxoplasma": -7.941}
{"smiles": "N#Cc1ccnc(N2CCN(C(=O)NC3CCS(=O)(=O)C3)CC2)c1", "stereo": "stereo unspecified", "T. brucei": 9.556, "Toxoplasma": 0.6462}
{"smiles": "Cc1cc(CN2CCN(c3ccc4nncn4n3)CC2)no1", "T. brucei": -2.168, "Toxoplasma": 5.312}